{"source": "paper PMC7862700", "note": "The list shows a part of the results, in another mix than the full data. At the low end of the ranking, values are background and their order means little."}
{"target": "SPI1 (UniProt P17947)", "assay": "DAPPL (digital affinity profiling via proximity ligation, sequencing)", "conditions": "10 mM Tris-HCl pH 7.5, 50 mM NaCl, 1 mM DTT, 4% glycerol, room temperature, 30 min; GST-TFs on glutathione beads, 16-mer random dsDNA library, 0.1% …; high values mean tight binding; double strand, one strand shown; scale: fold enrichment (6-mer frequency, TF over GST control)"}
{"sequence": "TCGTTC", "binding signal": 1.17}
{"sequence": "CGTCTC", "binding signal": 1.36}
{"sequence": "AATCCC", "binding signal": 1.26}
{"sequence": "ATCCCC", "binding signal": 1.39}
{"sequence": "CGCCCG", "binding signal": 0.984}
{"sequence": "TTATGT", "binding signal": 1.31}
{"sequence": "TTCCCC", "binding signal": 2.54}
{"sequence": "TCCTTG", "binding signal": 1.31}
{"sequence": "GAAAAG", "binding signal": 1.3}
{"sequence": "ATTAGC", "binding signal": 0.989}
{"sequence": "ACCCCG", "binding signal": 1.14}
{"sequence": "GAACAT", "binding signal": 1.04}
{"sequence": "AATCAA", "binding signal": 1.15}
{"sequence": "TTTATA", "binding signal": 1.34}
{"sequence": "GCTAAT", "binding signal": 1.13}
{"sequence": "TTCACT", "binding signal": 1.33}
{"sequence": "GAAATA", "binding signal": 1.49}
{"sequence": "TCTGTT", "binding signal": 1.43}
{"sequence": "TTTACT", "binding signal": 1.46}
{"sequence": "ACCCTA", "binding signal": 1.19}
{"sequence": "TCTGCA", "binding signal": 1.33}
{"sequence": "TAACTC", "binding signal": 1.18}
{"sequence": "GATGGT", "binding signal": 0.989}
{"sequence": "ACTTTA", "binding signal": 1.33}
{"sequence": "TTCCAG", "binding signal": 1.05}
{"sequence": "CCATGC", "binding signal": 1.01}
{"sequence": "CTCGTG", "binding signal": 0.971}
{"sequence": "AATAGA", "binding signal": 1.08}
{"sequence": "ATCACC", "binding signal": 1.11}
{"sequence": "CCGTCC", "binding signal": 1.21}
{"sequence": "GAACCA", "binding signal": 0.982}
{"sequence": "TTGCAC", "binding signal": 1.26}
{"sequence": "TTACGA", "binding signal": 1.09}
{"sequence": "AAGCTC", "binding signal": 1.12}
{"sequence": "ACGATC", "binding signal": 1}
{"sequence": "TGCTCA", "binding signal": 1.27}
